# Test results taken from patent US20140073761A1, “CONJUGATES CONTAINING HYDROPHILIC SPACER LINKERS” (priority 2007, published 2014).
# Part of at least one peptide drawing is inferred or uncertain, most often the ends.
# Test system: folate receptor-positive KB cells
# Assay type: cell-based
# Details: excess folic acid
# Protocol: Inhibition of Cellular DNA Synthesis. The compounds described herein were evaluated using an in vitro cytotoxicity assay that predicts the ability of the drug to inhibit the growth of folate receptor-positive KB cells. The compounds were comprised of folate linked to a respective chemotherapeutic drug, as prepared according to the protocols described herein. […] The cells were then rinsed once with fresh culture medium and incubated in fresh culture medium for 72 hours at 37° C. Cell viability was assessed using a ^3H-thymidine incorporation assay.
# In Vitro Concentration-Dependent Cytotoxic Activity. Cells were heavily seeded in 24-well Falcon plates and allowed to form nearly confluent monolayers overnight. Thirty minutes prior to the addition of test article, spent medium was aspirated from all wells and replaced with fresh folate-free RPMI (FFRPMI). […] Treated cells were pulsed for 2 h at 37° C., rinsed 4 times with 0.5 mL of media, and then chased in 1 mL of fresh media up to 70 h. Spent media was aspirated from all wells and replaced with fresh media containing 5 μCi/mL ^3H-thymidine. Following a further 2 h 37° C. incubation, cells were washed 3 times with 0.5 mL of PBS and then treated with 0.5 mL of ice-cold 5% trichloroacetic acid per well. After 15 min, the trichloroacetic acid was aspirated and the cell material solubilized by the addition of 0.5 mL of 0.25 N sodium hydroxide for 15 min. Four hundred and fifty μL of each solubilized sample were transferred to scintillation vials containing 3 mL of Ecolume scintillation cocktail and then counted in a liquid scintillation counter. Final tabulated results were expressed as the percentage of ^3H-thymidine incorporation relative to untreated controls.
# As shown in the figures herein, dose-dependent cytotoxicity was measurable, and in most cases, the IC50 values (concentration of drug conjugate required to reduce ^3H-thymidine incorporation into newly synthesized DNA by 50%) were in the low nanomolar range. […] The following table illustrated data for selected compounds against KB cells and against RAW264.7 cells
row,SMILES,KB Cells Competable with xs folate
1,"CC[C@]1(O)C[C@H]2CN(CCc3c([nH]c4ccccc34)[C@@](C(=O)OC)(c3cc4c(cc3OC)N(C)[C@H]3[C@@](O)(C(=O)NNC(=O)OCCSSC[C@H](NC(=O)[C@@H](NC(=O)CC[C@H](NC(=O)c5ccc(NCc6cnc7nc(N)[nH]c(=O)c7n6)cc5)C(=O)O)[C@@H](O)[C@H](O)[C@H](O)CO)C(=O)O)[C@H](O)[C@]5(CC)C=CCN6CC[C@]43[C@@H]65)C2)C1 [EC0234, Mono-Saccharo-Folate Vinblastine Conjugate]",Yes
2,"CC[C@]1(O)C[C@H]2CN(CCc3c([nH]c4ccccc34)[C@@](C(=O)OC)(c3cc4c(cc3OC)N(C)[C@H]3[C@@](O)(C(=O)NNC(=O)OCCSSC[C@H](NC(=O)[C@@H](NC(=O)[C@H](CC(=O)O)NC(=O)[C@@H](NC(=O)[C@H](CC(=O)O)NC(=O)[C@@H](NC(=O)CC[C@H](NC(=O)c5ccc(NCc6cnc7nc(N)[nH]c(=O)c7n6)cc5)C(=O)O)[C@@H](O)[C@H](O)[C@H](O)CO)[C@@H](O)[C@H](O)[C@H](O)CO)[C@@H](O)[C@H](O)[C@H](O)CO)C(=O)O)[C@H](O)[C@]5(CC)C=CCN6CC[C@]43[C@@H]65)C2)C1 [EC0263, Tris-Saccharo-Bis-Asp-Folate Vinblastine Conjugate]",Yes
3,"CC[C@]1(O)C[C@H]2CN(CCc3c([nH]c4ccccc34)[C@@](C(=O)OC)(c3cc4c(cc3OC)N(C)[C@H]3[C@@](O)(C(=O)NNC(=O)OCCSSC[C@H](NC(=O)[C@@H](NC(=O)[C@H](CC(=O)O)NC(=O)[C@@H](NC(=O)CC[C@H](NC(=O)c5ccc(NCc6cnc7nc(N)[nH]c(=O)c7n6)cc5)C(=O)O)[C@@H](O)[C@H](O)[C@H](O)CO)[C@@H](O)[C@H](O)[C@H](O)CO)C(=O)O)[C@H](O)[C@]5(CC)C=CCN6CC[C@]43[C@@H]65)C2)C1 [EC0246, Bis-Saccharo-Folate Vinblastine Conjugate]",Yes
